{
  "source": "paper PMC7899671",
  "about": "(eLife, 2021)",
  "molecular_target": "α1L9'Tβ2γ2L, α1L9'T/V279Aβ2γ2L, and α1β2γ2L receptors",
  "assay": "MWC model of channel gating, global fit to estimated open probability",
  "conditions": "read-out: KG (dissociation constant for GABA); MWC model parameter, global optimisation",
  "data": [
    {"smiles": "NCCCC(=O)O", "note": "[GABA]", "values": [
      {"measurement": "Kd", "value": 53, "unit": "µM"}
    ]}
  ]
}
